Assay results from ChEMBL document CHEMBL4316593 (Eur J Med Chem, 2019).
The source gives many values for each of these; only a part stands here.

Experiments:
Assay type in all cases: cell-based
Settings in all cases: U-87MG ATCC
[1] = Inhibition of RTK/PI3K/AKT/mTOR signaling in human U87 cells assessed as up regulation of JAG2 gene expression at cytotoxic IC50 measured after 48 hrs relative to control
[2] = Inhibition of RTK/PI3K/AKT/mTOR signaling in human U87 cells assessed as up regulation of emopamil binding protein like gene expression at cytotoxic IC50 measured after 48 hrs relative to control
[3] = Inhibition of RTK/PI3K/AKT/mTOR signaling in human U87 cells assessed as up regulation of carboxymethylenebutenolidase homolog gene expression at cytotoxic IC50 measured after 48 hrs relative to control
[4] = Inhibition of RTK/PI3K/AKT/mTOR signaling in human U87 cells assessed as down regulation of MAP3K6 gene expression at cytotoxic IC50 measured after 48 hrs relative to control
[5] = Inhibition of RTK/PI3K/AKT/mTOR signaling in human U87 cells assessed as up regulation of DRD1 gene expression at cytotoxic IC50 measured after 48 hrs relative to control
[6] = Inhibition of RTK/PI3K/AKT/mTOR signaling in human U87 cells assessed as down regulation of KIF1B gene expression at cytotoxic IC50 measured after 48 hrs relative to control
[7] = Inhibition of RTK/PI3K/AKT/mTOR signaling in human U87 cells assessed as up regulation of exosome component 5 gene expression at cytotoxic IC50 measured after 48 hrs relative to control
[8] = Inhibition of RTK/PI3K/AKT/mTOR signaling in human U87 cells assessed as down regulation of SLF2 gene expression at cytotoxic IC50 measured after 48 hrs relative to control
[9] = Inhibition of RTK/PI3K/AKT/mTOR signaling in human U87 cells assessed as down regulation of HECW2 gene expression at cytotoxic IC50 measured after 48 hrs relative to control
[10] = Inhibition of RTK/PI3K/AKT/mTOR signaling in human U87 cells assessed as up regulation of methylenetetrahydrofolate dehydrogenase (NADP+ dependent) 1-like gene expression at cytotoxic IC50 measured after 48 hrs relative to control
[11] = Inhibition of RTK/PI3K/AKT/mTOR signaling in human U87 cells assessed as up regulation of bromodomain and WD repeat domain containing 3 gene expression at cytotoxic IC50 measured after 48 hrs relative to control
[12] = Inhibition of RTK/PI3K/AKT/mTOR signaling in human U87 cells assessed as up regulation of C-terminal binding protein 2 gene expression at cytotoxic IC50 measured after 48 hrs relative to control
[13] = Inhibition of RTK/PI3K/AKT/mTOR signaling in human U87 cells assessed as up regulation of LRPPRC gene expression at cytotoxic IC50 measured after 48 hrs relative to control
[14] = Inhibition of RTK/PI3K/AKT/mTOR signaling in human U87 cells assessed as up regulation of nudix hydrolase 14 gene expression at cytotoxic IC50 measured after 48 hrs relative to control
[15] = Inhibition of RTK/PI3K/AKT/mTOR signaling in human U87 cells assessed as down regulation of TNPO1 gene expression at cytotoxic IC50 measured after 48 hrs relative to control
[16] = Inhibition of RTK/PI3K/AKT/mTOR signaling in human U87 cells assessed as down regulation of TXNL4B gene expression at cytotoxic IC50 measured after 48 hrs relative to control
[17] = Inhibition of RTK/PI3K/AKT/mTOR signaling in human U87 cells assessed as up regulation of methyl-CpG binding domain protein 6 gene expression at cytotoxic IC50 measured after 48 hrs relative to control
[18] = Inhibition of RTK/PI3K/AKT/mTOR signaling in human U87 cells assessed as down regulation of VPS45 gene expression at cytotoxic IC50 measured after 48 hrs relative to control
[19] = Inhibition of RTK/PI3K/AKT/mTOR signaling in human U87 cells assessed as up regulation of ALDOC gene expression at cytotoxic IC50 measured after 48 hrs relative to control
[20] = Inhibition of RTK/PI3K/AKT/mTOR signaling in human U87 cells assessed as down regulation of PCNA gene expression at cytotoxic IC50 measured after 48 hrs relative to control
[21] = Inhibition of RTK/PI3K/AKT/mTOR signaling in human U87 cells assessed as up regulation of family with sequence similarity 136 member A gene expression at cytotoxic IC50 measured after 48 hrs relative to control
[22] = Inhibition of RTK/PI3K/AKT/mTOR signaling in human U87 cells assessed as down regulation of KPNA4 gene expression at cytotoxic IC50 measured after 48 hrs relative to control
[23] = Inhibition of RTK/PI3K/AKT/mTOR signaling in human U87 cells assessed as down regulation of SERPINI1 gene expression at cytotoxic IC50 measured after 48 hrs relative to control
[24] = Inhibition of RTK/PI3K/AKT/mTOR signaling in human U87 cells assessed as down regulation of PLEKHM2 gene expression at cytotoxic IC50 measured after 48 hrs relative to control
[25] = Inhibition of RTK/PI3K/AKT/mTOR signaling in human U87 cells assessed as up regulation of glutamate ionotropic receptor NMDA type subunit 2D gene expression at cytotoxic IC50 measured after 48 hrs relative to control
[26] = Inhibition of RTK/PI3K/AKT/mTOR signaling in human U87 cells assessed as up regulation of protease, serine 8 gene expression at cytotoxic IC50 measured after 48 hrs relative to control
[27] = Inhibition of RTK/PI3K/AKT/mTOR signaling in human U87 cells assessed as down regulation of MAPRE2 gene expression at cytotoxic IC50 measured after 48 hrs relative to control
[28] = Inhibition of RTK/PI3K/AKT/mTOR signaling in human U87 cells assessed as up regulation of StAR related lipid transfer domain containing 4 gene expression at cytotoxic IC50 measured after 48 hrs relative to control
[29] = Inhibition of RTK/PI3K/AKT/mTOR signaling in human U87 cells assessed as up regulation of RAP2B gene expression at cytotoxic IC50 measured after 48 hrs relative to control
[30] = Inhibition of RTK/PI3K/AKT/mTOR signaling in human U87 cells assessed as up regulation of EIF3B gene expression at cytotoxic IC50 measured after 48 hrs relative to control
[31] = Inhibition of RTK/PI3K/AKT/mTOR signaling in human U87 cells assessed as up regulation of family with sequence similarity 13 member A gene expression at cytotoxic IC50 measured after 48 hrs relative to control
[32] = Inhibition of RTK/PI3K/AKT/mTOR signaling in human U87 cells assessed as down regulation of SAP18 gene expression at cytotoxic IC50 measured after 48 hrs relative to control

**Q.** What does the source list for `CC(=O)C(=NNc1ccccc1C#N)C(C)=O`?
**A.** log2FC [1]: 2.21; log2FC [2]: 0.978; log2FC [3]: 1.29; log2FC [4]: -1.01; log2FC [5]: 4.16; log2FC [6]: -0.898; log2FC [7]: 1.45; log2FC [8]: -1.08; log2FC [9]: -2.77; log2FC [10]: 0.935; log2FC [11]: 0.732; log2FC [12]: 1.08; log2FC [13]: 0.459; log2FC [14]: 1.17; log2FC [15]: -1.12; log2FC [16]: -0.868; log2FC [17]: 1.09; log2FC [18]: -0.983; log2FC [19]: 2.19; log2FC [20]: -1.42; log2FC [21]: 0.792; log2FC [22]: -1.19; log2FC [23]: -2.65; log2FC [24]: -0.675; log2FC [25]: 0.72; log2FC [26]: 0.764; log2FC [27]: -1.73; log2FC [28]: 1.5; log2FC [29]: 0.641; log2FC [30]: 0.304; log2FC [31]: 1.23; log2FC [32]: -0.525
